# Library screening results

Measurements from “University of Dundee, Small-Polar-MMV Screening Library” (2021), ChEMBL document CHEMBL3988442.

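Viability assay of Plasmodium falciparum sporozoites; the read-out is not stated. The concentration is filed as 10 mM, unlikely as a test dose, so the dose is not known. The record gives no direction; compounds that gave an IC50 in retests scored well above the rest, so higher reads as lower viability. Strong results were mostly tested again. Size under these conditions: about 34,000 compounds, about 280 of them at 50% or above in at least one test.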

Each number is a percent effect as filed. The controls that fix the scale are not given in the record; negative values are as filed. Compounds were drawn at random from those tested, without regard to their results.

| # | compound | percent effect |
|---|---|---|
| 1 | `CSc1ccc(NC(=O)Nc2ccc3c(c2)N(S(C)(=O)=O)CC3)cc1` | -18.44 |
| 2 | `O=C1CC2(CCN(C(=O)c3ccccn3)CC2)Oc2c(Br)cc(Br)cc21` | -21.39 |
| 3 | `CN1CCC(NC(=O)Nc2ccc(F)c(-n3cccc3)c2)C1=O` (stereo unspecified) | -1.066 |
| 4 | `CC1(C)C[C@H](CCNC(=O)c2ccncc2)c2ccccc2O1` | 18.71 |
| 5 | `NC(=O)NC(=O)CNc1cccc(C(=O)c2ccccc2)c1` | 0.6519 |
| 6 | `Cc1nn2cccnc2c1C(=O)N1CCCC(n2ccnc2)C1` (stereo unspecified) | -2.451 |
| 7 | `CN1CCN(Cc2cnc3n2CCN(Cc2cccnc2)CC3)CC1.O=C(O)C(F)(F)F.O=C(O)C(F)(F)F.O=C(O)C(F)(F)F` | -10.61 |
| 8 | `c1csc(CNCC2COCc3c(-c4ccsc4)nnn3C2)n1` (stereo unspecified) | -0.5963 |
| 9 | `CCOCCNC(=O)[C@@H]1CCCN1c1nccc(Nc2ccccc2)n1` | -9.538 |
| 10 | `OCCNc1nccc(-c2c[nH]nc2-c2cccnc2)n1` | 8.213 |
| 11 | `CCN(CC)C(=O)CCn1ncc2c(Cl)cccc21` | -6.14 |
| 12 | `Cl.FC(F)(F)c1nc(C2CCCNC2)no1` (stereo unspecified) | 6.016 |
| 13 | `CN(C)S(=O)(=O)c1ccc(CN2CCCC2c2ccsc2)o1` (stereo unspecified) | 10.05 |
| 14 | `COc1ccc(CN2CCC(c3cc(O)nc(C)n3)C2)c(OC)c1.O=C(O)CC(O)(CC(=O)O)C(=O)O` (stereo unspecified) | -6.36 |
| 15 | `O=C(c1ccc(=O)[nH]n1)N1CCCC(O)(CN2CCC(F)(F)CC2)CC1` (stereo unspecified) | -3.133 |
| 16 | `[H][C@@]12CCN(S(C)(=O)=O)C[C@]1([H])[C@@H](CNC(=O)c1nccn1C)OC2` | -0.7666 |
| 17 | `COc1ccc(Cl)cc1NCc1cc(C)on1` | 0.5536 |
| 18 | `O=C(O)C(F)(F)F.O=C(O)C(F)(F)F.O=C(O)C(F)(F)F.[H][C@@]12CCN(Cc3ccccn3)[C@@]1([H])CC(=O)N2Cc1cccnc1` | 23.03 |
| 19 | `O=C(O)C(F)(F)F.O=C(O)C(F)(F)F.O=C1COC2(CCN(CC3CCOCC3)CC2)CN1Cc1ccccn1` | -18.69 |
| 20 | `Cc1nc(Nc2ccccn2)cc(C2CCCN2Cc2ncc[nH]2)n1` (stereo unspecified) | -1.466 |
| 21 | `Cc1cccc(CNCc2ccc(NC(=O)NC(C)C)cc2)c1` | 0.2701 |
| 22 | `Cn1ccnc1CN1CCOC(Cn2cccn2)C1` (stereo unspecified) | 4.643 |
| 23 | `CCc1nc(CN(C(C)=O)C2CCN(CCc3ccncc3)C2)no1` (stereo unspecified) | 3.713 |
| 24 | `O=C(NCC(=O)N1CCC2(CC1)OCCO2)c1ccoc1` | 0.2026 |
| 25 | `CC(C)C(C(=O)N1CCCN(c2nccs2)CC1)n1cncn1` (stereo unspecified) | 5.026 |
| 26 | `c1cnnc(N2CCCC(NCc3ccncc3)C2)c1` (stereo unspecified) | 2.453 |
| 27 | `CN1CCN(S(=O)(=O)c2cccc(C#N)c2)c2ccc(F)cc21` | -13.93 |
| 28 | `Clc1ccc(CN(CCN2CCOCC2)Cc2cccnc2)c(Cl)c1` | 4.496 |
| 29 | `Cc1cccc(-c2cccc(CC3(C(=O)O)CCOCC3)c2)c1` | -3.075 |
| 30 | `[H][C@]12CC[C@](O)(CC1)C(CN1CCOCC1)N2C(=O)Nc1ccccc1` (stereo partly specified) | -37.87 |
| 31 | `CCn1c(CN2CCCC2)nnc1C1CCN(S(=O)(=O)CC)CC1` | -8.166 |
| 32 | `CC(=O)NCCC1CCCCN1S(=O)(=O)c1cccc(C#N)c1` (stereo unspecified) | -5.145 |
| 33 | `CC(C)C(=O)N1CCC(c2nc3c([nH]2)CCCNC3=O)CC1` | -12.77 |
| 34 | `Cc1c(C2SCC(=O)Nc3c2c(O)nn3C(C)C)cnn1C` (stereo unspecified) | -14.8 |
| 35 | `COc1ccc(N(c2ccccc2)c2ccc(C(=O)O)s2)cc1` | 1.244 |
| 36 | `CN(C)c1cc(N2CCN(c3ccccn3)CC2)ncn1` | -18.98 |
| 37 | `CN(C)c1nc(N2CCCC2)nc2c1CCN(Cc1nccn1C)CC2.O=C(O)C(F)(F)F` | 0.1688 |
| 38 | `O=C(NCCc1cc(N2CCOCC2)nc(N2CCCC2)n1)C1CC1` | 15.4 |
| 39 | `O=C(CN1CCOC(Cn2cccn2)C1)NCCc1ccc(F)cc1` (stereo unspecified) | -14.29 |
| 40 | `O=C(NCCn1ccc(-c2ccccn2)n1)C1CCC1` | 5.819 |
| 41 | `CC(C)c1n[nH]c(C2CN(C(=O)c3cc(C4CC4)on3)CCO2)n1` (stereo unspecified) | -9.758 |
| 42 | `CN(Cc1noc(C2CC2)n1)C1CCN(Cc2nnc(C3CC3)o2)C1` (stereo unspecified) | 5.511 |
| 43 | `CN(C)C(=O)c1cn[nH]c1C1CCCN1Cc1nccn1C.O=CO` (stereo unspecified) | -4.375 |
| 44 | `CCc1nnc2n1CCN(C(=O)c1ccc3[nH]cnc3c1)C2` | -22.4 |
| 45 | `O=C(O)C(F)(F)F.O=C(O)C(F)(F)F.[H][C@]12CCN(Cc3cccs3)[C@@]1([H])C[C@H](C(=O)N1CCN(C)CC1)O2` | 7.449 |
| 46 | `Cc1cncc(C2CCN(Cc3ccc(S(C)(=O)=O)cc3)CC2)n1` | 1.155 |
| 47 | `O=C(NC1CC1)N1CC[C@@H](O)[C@@H]1Cc1ccccc1` | -12.82 |
| 48 | `COc1cc2c(cc1CNC(Cc1cccs1)c1nccs1)OCCO2.Cl` (stereo unspecified) | -2.601 |
| 49 | `CC(C)C(=O)N1CCN(Cc2ccccn2)CC2(CC(=O)N(C)C2)C1.O=C(O)C(F)(F)F.O=C(O)C(F)(F)F` (stereo unspecified) | -8.664 |
| 50 | `CC(=O)N(Cc1ncc(C(C)C)o1)C1CCN(CCn2cccn2)C1` (stereo unspecified) | 5.597 |
| 51 | `CC(=O)c1ccc(OCC(=O)NS(=O)(=O)c2ccc(C)s2)cc1` | 2.005 |
| 52 | `Cc1cnn(CC2CCCN2C(=O)c2ccc3[nH]c(=O)[nH]c3c2)c1` (stereo unspecified) | 3.376 |
| 53 | `CCN1CCC(CC(=O)N[C@H](C(=O)O)c2cccc(F)c2F)CC1` | -0.1103 |
| 54 | `Cc1nc(CN2CCCC(NCCOc3ccccc3C#N)C2)no1` (stereo unspecified) | 2.399 |
| 55 | `Cc1nc(Cn2c3c(ccc2=O)CC(NC(C)C)CC3)cs1.O=C(O)C(F)(F)F.O=C(O)C(F)(F)F` (stereo unspecified) | -0.3503 |
| 56 | `CC(C)N(C)C(=O)C1CCC2(CCNCC2)O1.Cl` (stereo unspecified) | -3.197 |
| 57 | `CN(C)C(=O)N1CCN(c2ccc3ccc(C(=O)NC4CC4)cn23)CC1` | 0.2627 |
| 58 | `O=C(c1nc(Cc2c[nH]c3ccccc23)no1)N1CCCCC1` | -2.656 |
| 59 | `Cc1cc(-c2cc(F)ccc2C(=O)O)nc(C2CCCN(C)C2)n1` (stereo unspecified) | 1.999 |
| 60 | `CCn1nc(CC(C)C)cc1C(=O)N1CC(N2CCCCC2C)C1` (stereo unspecified) | -1.065 |
| 61 | `Cn1cnc(S(=O)(=O)NCCCN2CCCCCC2=O)c1Cl` | -2.417 |
| 62 | `CNc1cncc(C2CCCN(S(C)(=O)=O)C2)n1` (stereo unspecified) | -15.28 |
| 63 | `O=C(O)C(F)(F)F.O=C(O)C(F)(F)F.O=C(O)C(F)(F)F.[H][C@@]12CCCO[C@]1([H])[C@H](Nc1ccccn1)CN(Cc1ccccn1)C2` | -13.15 |
| 64 | `Cc1ncsc1-c1cc(C(=O)NCCO)ccn1` | -3.424 |
| 65 | `O=C(NCc1cccnc1N1CCc2ccccc2C1)c1cc(=O)[nH][nH]1` | -6.316 |
| 66 | `COc1cc(C(=O)N(Cc2ccco2)C2CC2)cc2c1OCCO2` | 2.368 |
| 67 | `O=C(O)C(F)(F)F.O=C(O)C(F)(F)F.[H][C@@]12CCN(c3ncc(F)cn3)[C@]1([H])CC[C@@H](C(=O)NCc1cccnc1)O2` | 1.649 |
| 68 | `c1cnc(NCC2Cn3nnc(-c4ccsc4)c3CO2)nc1` (stereo unspecified) | -13.11 |
| 69 | `Cc1cc(C)c(CNC(=O)NCC(O)c2cccc(F)c2)c(=O)[nH]1` (stereo unspecified) | 4.808 |
| 70 | `Cc1ccc(-c2nc(CN3CCn4c(C)nnc4C3)cs2)o1` | -8.626 |
| 71 | `O=C(NCCN1CCOCC1)c1cnc(Cc2ccc(F)cc2)s1` | -4.902 |
| 72 | `CCS(=O)(=O)CCNC(=O)NCc1ccccc1-n1cccn1` | -8 |

For reference, 9 entries once more:

compound,percent effect
Cc1cccc(CNCc2ccc(NC(=O)NC(C)C)cc2)c1,0.2701
COc1cc2c(cc1CNC(Cc1cccs1)c1nccs1)OCCO2.Cl (stereo unspecified),-2.601
OCCNc1nccc(-c2c[nH]nc2-c2cccnc2)n1,8.213
CC(C)c1n[nH]c(C2CN(C(=O)c3cc(C4CC4)on3)CCO2)n1 (stereo unspecified),-9.758
Cn1cnc(S(=O)(=O)NCCCN2CCCCCC2=O)c1Cl,-2.417
CN1CCN(Cc2cnc3n2CCN(Cc2cccnc2)CC3)CC1.O=C(O)C(F)(F)F.O=C(O)C(F)(F)F.O=C(O)C(F)(F)F,-10.61
O=C(CN1CCOC(Cn2cccn2)C1)NCCc1ccc(F)cc1 (stereo unspecified),-14.29
Cl.FC(F)(F)c1nc(C2CCCNC2)no1 (stereo unspecified),6.016
O=C(O)C(F)(F)F.O=C(O)C(F)(F)F.[H][C@]12CCN(Cc3cccs3)[C@@]1([H])C[C@H](C(=O)N1CCN(C)CC1)O2,7.449